The text below walks through data of PMC9307952, “Lipoate protein ligase B primarily recognizes the C8-phosphopantetheine arm of its donor substrate and weakly binds the acyl carrier protein” (The Journal of Biological Chemistry, 2022).

Chains of the proteins cited; added tags and fusions are not shown. Residues count along the entry.
UniProt P0A6A8, residues 2-78: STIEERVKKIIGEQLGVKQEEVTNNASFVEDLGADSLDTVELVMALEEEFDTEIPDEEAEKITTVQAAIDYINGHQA

The target in this experiment is 15N-labeled E. coli apo-ACP (unmodified acyl carrier protein), NMR sample (E. coli) (UniProt P0A6A8). As to the kind of experiment: NMR titration; 15N-labeled ACP (0.3 to 0.4 mM) titrated with unlabeled LipBK135A/C169A, 0.25 to 2 molar equivalents; 1H15N TROSY-HSQC; 50 mM Tris, 200 mM NaCl, pH 7.8; both purified.

Results are given in words; binding and its absence hold for the method and conditions named. Some entries that bind do so weakly or less than the wild type.

B1: E. coli LipBK135A/C169A (catalytically inactive double mutant of lipoate protein ligase B) (enzyme, UniProt P60720 1-213)
chain: MYQDKILVRQLGLQPYEPISQAMHEFTDTRDDSTLDEIWLVEHYPVFTQGQAGKAEHILMPGDIPVIQSDRGGQVTYHGPGQQVMYVLLNLKRRKLGVRELVTLLEQTVVNTLAELGIEAHPRADAPGVYVGEKAICSLGLRIRRGCSFHGLALNVNMDLSPFLRINPAGYAGMEMAKISQWKPEATTNNIAPRLLENILALLNNPDFEYITA
For B1, the binding entry is given as “binds weakly”.
